{"source": "patent US9718861B2", "about": "(Universitaet Leipzig, priority 2011, dated 2017)", "note": "Some peptides are written in HELM: one residue between dots, names in brackets for other building blocks, links after the first $.", "data": [{"assay": "general procedure: Fmoc solid-phase peptide synthesis; Rink amide resin (21 mg, loading 0.63 mmol/g); DIC/HOBt", "conditions": "whole synthesis, analytical RP-HPLC, 220 nm, scale of the general procedure 21 mg resin", "units": {"final HPLC purity": "%"}, "values": [{"substance": "PEPTIDE1{K.[dW].F.[D-Bip].L.L.[am]}$$$$V2.0", "final HPLC purity": 95}, {"substance": "PEPTIDE1{K.[dW].F.[D-Bpa].L.L.[am]}$$$$V2.0", "final HPLC purity": ">95"}, {"substance": "K-(D-1-Nal)-F-(D-1-Nal)-LL-NH2", "final HPLC purity": ">95"}, {"substance": "K-(D-1-Nal)-(D-Phe)-wLL-NH2", "final HPLC purity": ">95"}, {"substance": "PEPTIDE1{K.[D-Trp(Me)].F.[dW].L.L.[am]}$$$$V2.0", "final HPLC purity": ">95"}, {"substance": "K-(D-1-Nal)-(L-Nva)-wLL-NH2", "final HPLC purity": ">95"}, {"substance": "PEPTIDE1{K.[dW].F.[D-Dip].L.L.[am]}$$$$V2.0", "final HPLC purity": ">95"}, {"substance": "K-(D-1-Nal)-(Cha)-wLL-NH2", "final HPLC purity": ">95"}]}]}
